This note sets out measurements from the supplement of paper PMC10032668.

Protein sequences, listed by entry. Tags and fused reporters are not part of them.
CDC23, Q9UJX2, UniProt Q9UJX2, whole entry: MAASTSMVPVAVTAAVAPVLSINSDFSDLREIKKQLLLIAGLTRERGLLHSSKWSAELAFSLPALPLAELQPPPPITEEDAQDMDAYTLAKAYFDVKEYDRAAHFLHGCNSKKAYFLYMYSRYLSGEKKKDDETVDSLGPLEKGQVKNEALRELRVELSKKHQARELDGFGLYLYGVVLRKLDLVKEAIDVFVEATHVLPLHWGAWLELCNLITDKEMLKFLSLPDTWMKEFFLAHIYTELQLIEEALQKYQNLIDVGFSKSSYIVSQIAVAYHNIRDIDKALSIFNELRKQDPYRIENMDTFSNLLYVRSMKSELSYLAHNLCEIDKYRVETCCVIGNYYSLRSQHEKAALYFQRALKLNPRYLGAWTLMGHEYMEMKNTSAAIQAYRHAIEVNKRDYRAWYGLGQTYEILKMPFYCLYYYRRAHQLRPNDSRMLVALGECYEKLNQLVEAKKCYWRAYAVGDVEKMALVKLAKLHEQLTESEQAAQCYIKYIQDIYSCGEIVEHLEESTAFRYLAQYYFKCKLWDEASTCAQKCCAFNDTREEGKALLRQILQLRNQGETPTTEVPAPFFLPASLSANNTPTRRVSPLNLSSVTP
FABP5, Q01469, UniProt Q01469, whole entry: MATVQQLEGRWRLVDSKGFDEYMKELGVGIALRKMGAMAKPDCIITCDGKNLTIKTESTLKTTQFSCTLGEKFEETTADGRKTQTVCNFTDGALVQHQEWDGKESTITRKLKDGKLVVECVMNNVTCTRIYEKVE
CNOT1, A5YKK6, UniProt A5YKK6, whole entry: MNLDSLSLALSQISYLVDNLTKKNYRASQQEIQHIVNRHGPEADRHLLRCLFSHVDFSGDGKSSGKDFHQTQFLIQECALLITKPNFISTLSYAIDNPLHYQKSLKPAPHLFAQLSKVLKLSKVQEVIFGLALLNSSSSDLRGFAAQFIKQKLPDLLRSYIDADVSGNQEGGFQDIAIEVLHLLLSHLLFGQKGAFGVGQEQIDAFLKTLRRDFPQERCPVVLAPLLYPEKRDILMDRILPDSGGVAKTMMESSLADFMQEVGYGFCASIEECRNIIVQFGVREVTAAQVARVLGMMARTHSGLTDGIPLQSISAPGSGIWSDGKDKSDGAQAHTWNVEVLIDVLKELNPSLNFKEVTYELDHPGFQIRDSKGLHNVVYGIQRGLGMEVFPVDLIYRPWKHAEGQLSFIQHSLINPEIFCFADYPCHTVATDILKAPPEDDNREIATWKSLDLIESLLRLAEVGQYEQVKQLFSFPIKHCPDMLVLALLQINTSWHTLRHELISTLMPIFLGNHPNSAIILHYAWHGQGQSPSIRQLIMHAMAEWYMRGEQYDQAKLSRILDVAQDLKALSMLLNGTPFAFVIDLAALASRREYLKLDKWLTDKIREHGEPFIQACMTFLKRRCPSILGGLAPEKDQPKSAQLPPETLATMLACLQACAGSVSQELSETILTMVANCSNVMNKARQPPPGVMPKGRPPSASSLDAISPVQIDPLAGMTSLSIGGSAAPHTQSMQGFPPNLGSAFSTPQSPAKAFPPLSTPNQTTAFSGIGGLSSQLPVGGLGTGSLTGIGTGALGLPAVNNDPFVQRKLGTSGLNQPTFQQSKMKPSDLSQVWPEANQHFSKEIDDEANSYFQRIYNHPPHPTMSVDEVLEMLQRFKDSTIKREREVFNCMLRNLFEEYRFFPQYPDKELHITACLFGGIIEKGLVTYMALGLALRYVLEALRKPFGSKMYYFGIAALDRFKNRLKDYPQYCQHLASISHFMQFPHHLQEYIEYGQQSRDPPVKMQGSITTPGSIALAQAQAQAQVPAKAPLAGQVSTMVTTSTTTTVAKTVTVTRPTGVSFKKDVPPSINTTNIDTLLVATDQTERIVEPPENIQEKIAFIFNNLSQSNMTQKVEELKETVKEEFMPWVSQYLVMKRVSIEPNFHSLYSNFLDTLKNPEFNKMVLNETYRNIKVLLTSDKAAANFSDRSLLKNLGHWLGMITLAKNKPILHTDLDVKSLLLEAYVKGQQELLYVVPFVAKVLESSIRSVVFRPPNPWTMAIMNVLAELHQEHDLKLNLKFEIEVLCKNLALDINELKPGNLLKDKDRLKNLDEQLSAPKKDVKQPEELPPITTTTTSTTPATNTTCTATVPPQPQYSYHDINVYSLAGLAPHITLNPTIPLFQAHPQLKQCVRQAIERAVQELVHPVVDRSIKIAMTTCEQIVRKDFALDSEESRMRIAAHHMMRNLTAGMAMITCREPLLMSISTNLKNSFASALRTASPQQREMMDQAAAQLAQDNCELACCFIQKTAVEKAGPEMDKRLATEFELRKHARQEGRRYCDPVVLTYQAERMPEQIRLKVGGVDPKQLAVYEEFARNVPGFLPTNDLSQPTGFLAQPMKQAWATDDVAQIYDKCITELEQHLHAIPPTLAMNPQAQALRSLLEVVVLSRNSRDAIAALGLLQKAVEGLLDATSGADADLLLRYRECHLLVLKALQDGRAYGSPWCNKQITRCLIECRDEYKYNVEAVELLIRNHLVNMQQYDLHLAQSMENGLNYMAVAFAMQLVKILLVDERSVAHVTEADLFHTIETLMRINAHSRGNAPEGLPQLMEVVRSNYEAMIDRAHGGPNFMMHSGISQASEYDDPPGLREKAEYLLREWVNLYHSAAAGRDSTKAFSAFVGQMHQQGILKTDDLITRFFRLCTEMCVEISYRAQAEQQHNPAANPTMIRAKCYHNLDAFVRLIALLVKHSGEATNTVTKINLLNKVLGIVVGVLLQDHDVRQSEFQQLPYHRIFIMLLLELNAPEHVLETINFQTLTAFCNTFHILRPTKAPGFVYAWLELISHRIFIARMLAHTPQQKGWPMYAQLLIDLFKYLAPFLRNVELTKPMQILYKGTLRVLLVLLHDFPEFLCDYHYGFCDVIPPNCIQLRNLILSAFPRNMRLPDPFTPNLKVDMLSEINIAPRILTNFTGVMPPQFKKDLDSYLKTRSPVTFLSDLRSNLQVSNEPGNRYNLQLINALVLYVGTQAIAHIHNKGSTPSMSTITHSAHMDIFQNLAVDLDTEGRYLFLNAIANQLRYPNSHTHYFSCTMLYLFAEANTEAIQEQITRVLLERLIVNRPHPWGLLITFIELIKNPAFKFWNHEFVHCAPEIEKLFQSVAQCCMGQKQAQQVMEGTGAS
CKS2, P33552, UniProt P33552, whole entry: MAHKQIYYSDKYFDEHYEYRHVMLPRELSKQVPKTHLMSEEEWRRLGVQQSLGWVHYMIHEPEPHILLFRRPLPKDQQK
CXXC1, Q9P0U4, UniProt Q9P0U4, whole entry: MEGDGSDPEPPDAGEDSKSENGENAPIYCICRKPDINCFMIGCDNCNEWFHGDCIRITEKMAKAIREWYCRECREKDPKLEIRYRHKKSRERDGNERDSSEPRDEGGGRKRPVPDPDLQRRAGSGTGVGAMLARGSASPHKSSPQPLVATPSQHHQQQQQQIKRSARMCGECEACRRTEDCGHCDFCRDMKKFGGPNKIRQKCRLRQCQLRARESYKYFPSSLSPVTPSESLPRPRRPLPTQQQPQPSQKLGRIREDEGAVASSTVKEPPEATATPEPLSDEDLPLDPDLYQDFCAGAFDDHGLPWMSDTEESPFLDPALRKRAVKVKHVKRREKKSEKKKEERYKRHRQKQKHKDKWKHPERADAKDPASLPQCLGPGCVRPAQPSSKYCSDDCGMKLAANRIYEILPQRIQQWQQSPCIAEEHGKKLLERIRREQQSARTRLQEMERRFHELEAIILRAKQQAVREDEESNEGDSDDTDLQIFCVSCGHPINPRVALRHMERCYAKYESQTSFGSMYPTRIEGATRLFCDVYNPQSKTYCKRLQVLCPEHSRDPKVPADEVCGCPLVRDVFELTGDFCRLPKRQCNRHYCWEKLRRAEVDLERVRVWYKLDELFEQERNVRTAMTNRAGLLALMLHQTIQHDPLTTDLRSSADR
IK, Q13123, UniProt Q13123, whole entry: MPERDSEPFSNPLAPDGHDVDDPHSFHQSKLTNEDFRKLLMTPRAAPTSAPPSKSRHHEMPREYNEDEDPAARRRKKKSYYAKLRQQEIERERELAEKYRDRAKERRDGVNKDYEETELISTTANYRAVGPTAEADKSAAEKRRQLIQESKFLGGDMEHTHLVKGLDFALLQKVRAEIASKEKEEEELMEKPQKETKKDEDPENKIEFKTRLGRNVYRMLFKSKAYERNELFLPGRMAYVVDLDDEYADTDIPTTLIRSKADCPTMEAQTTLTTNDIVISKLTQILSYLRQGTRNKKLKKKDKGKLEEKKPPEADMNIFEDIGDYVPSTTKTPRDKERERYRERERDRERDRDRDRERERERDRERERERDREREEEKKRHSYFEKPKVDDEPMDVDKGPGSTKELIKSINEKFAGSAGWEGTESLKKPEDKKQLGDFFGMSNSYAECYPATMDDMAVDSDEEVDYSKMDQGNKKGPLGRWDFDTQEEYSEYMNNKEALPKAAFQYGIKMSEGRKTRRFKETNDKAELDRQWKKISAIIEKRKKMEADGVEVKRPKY
LRPAP1, P30533, UniProt P30533, whole entry: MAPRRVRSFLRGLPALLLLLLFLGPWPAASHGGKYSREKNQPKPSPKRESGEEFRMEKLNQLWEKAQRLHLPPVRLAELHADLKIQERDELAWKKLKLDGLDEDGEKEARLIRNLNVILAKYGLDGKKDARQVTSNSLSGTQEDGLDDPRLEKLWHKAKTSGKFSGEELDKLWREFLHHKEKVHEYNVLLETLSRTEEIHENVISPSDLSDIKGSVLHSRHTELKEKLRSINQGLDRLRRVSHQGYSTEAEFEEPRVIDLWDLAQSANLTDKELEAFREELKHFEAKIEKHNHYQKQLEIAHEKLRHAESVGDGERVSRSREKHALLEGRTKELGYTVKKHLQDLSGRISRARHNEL
SDC2, P34741, UniProt P34741, whole entry: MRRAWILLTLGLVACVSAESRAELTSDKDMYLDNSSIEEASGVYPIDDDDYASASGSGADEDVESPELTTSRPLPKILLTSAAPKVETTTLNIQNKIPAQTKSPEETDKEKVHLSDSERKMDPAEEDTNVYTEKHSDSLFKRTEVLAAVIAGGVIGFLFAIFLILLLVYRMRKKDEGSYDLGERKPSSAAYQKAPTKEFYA
NCK2, O43639, UniProt O43639, whole entry: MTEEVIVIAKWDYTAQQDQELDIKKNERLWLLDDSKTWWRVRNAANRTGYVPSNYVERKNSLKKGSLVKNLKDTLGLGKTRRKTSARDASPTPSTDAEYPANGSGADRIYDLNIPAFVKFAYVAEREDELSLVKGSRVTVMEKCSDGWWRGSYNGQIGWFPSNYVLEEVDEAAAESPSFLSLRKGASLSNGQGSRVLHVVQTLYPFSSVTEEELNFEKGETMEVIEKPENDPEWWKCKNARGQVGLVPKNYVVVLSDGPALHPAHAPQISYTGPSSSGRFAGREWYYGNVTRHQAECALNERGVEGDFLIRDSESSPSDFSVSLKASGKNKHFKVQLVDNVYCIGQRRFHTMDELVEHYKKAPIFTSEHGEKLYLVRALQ

The list shows a part of the results. Only hits are listed; about a third recur on repeated control peptides.

Holding throughout (assay): PRISMA enrichment of interactor (LFQ) in peptide spot vs all other peptide spots (log2 fold change); higher = stronger / more specific binding of the interactor to the peptide
Test [1] concerns the target CNN2, Q99439. As for the experimental part: (§1)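 PRISMA: 221 full-length sORF-encoded peptides (3-15 aa), plus SOS1/GLUT1 control peptides, were spot-synthesized on cellulose membranes in triplicate. Membranes were incubated with HEK293T lysate, and bound proteins were identified by LC-MS/MS with LFQ. Enrichment is the log2 fold change versus all other peptide spots; only significant interactors are listed (cutoff c=6, x0=2.8).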

Test [2] addresses PARP2, Q9UGN5. As for the experimental part: as §1
The target in test [3] is CDC23, Q9UJX2. As for the experimental part:
as §1

In test [4] the target is COQ9, O75208. As for the experimental part: as §1
Test [5] deals with CPOX, P36551. As for the experimental part:
as §1

Test [6] deals with FABP5, Q01469. How it is done: as §1
Test [7] deals with NCAPG, Q9BPX3. As for the experimental part:
as §1

Test [8] has as its target DNAJC10, Q8IXB1. As for the experimental part: as §1
The target in test [9] is HIRIP3, Q9BW71. As for the experimental part: as §1
Test [10] addresses POLDIP2, Q9Y2S7. As for the experimental part:
as §1

For test [11], the target named is CNOT1, A5YKK6. As for the experimental part: as §1
The target of test [12] is CKS2, P33552. As for the experimental part:
as §1

Test [13] concerns the target U2SURP, O15042. How it is done: as §1
Test [14] has as its target CLINT1, Q14677. As for the experimental part: as §1
The target in test [15] is CLTA, P09496. How it is done: as §1
For test [16], the target named is CLTB, P09497. As for the experimental part:
as §1

The target of test [17] is CLTC, Q00610. As for the experimental part: as §1
The target in test [18] is CLTCL1, P53675. As for the experimental part:
as §1

The target of test [19] is DAZAP1, Q96EP5. As for the experimental part: as §1
In test [20] the target is ORC4, O43929. As for the experimental part:
as §1

The target in test [21] is PICALM, Q13492. How it is done:
as §1

Test [22] concerns the target TIA1, P31483. As for the experimental part:
as §1

Test [23] has as its target CAV1, Q03135. How it is done:
as §1

In test [24] the target is GCAT, O75600. As for the experimental part: as §1
In test [25] the target is NTMT1, Q9BV86. How it is done: as §1
For test [26], the target named is USP24, Q9UPU5. As for the experimental part: as §1
Test [27] has as its target CXXC1, Q9P0U4. As for the experimental part: as §1
Test [28] addresses GPD2, P43304. How it is done:
as §1

Test [29] deals with IK, Q13123. As for the experimental part: as §1
Test [30] concerns the target NKAPD1, Q6ZUT1. As for the experimental part:
as §1

For test [31], the target named is TRAF2, Q12933. How it is done: as §1
In test [32] the target is UPF3B, Q9BZI7. How it is done:
as §1

In test [33] the target is CKAP2L, Q8IYA6. As for the experimental part:
as §1

Test [34] concerns the target DCAF7, P61962. As for the experimental part: as §1
Test [35] concerns the target GRB2, P62993. How it is done: as §1
Test [36] concerns the target LRPAP1, P30533. As for the experimental part: as §1
The target of test [37] is NPC2, P61916. As for the experimental part: as §1
For test [38], the target named is RPL26L1, Q9UNX3. As for the experimental part:
as §1

The target in test [39] is RTKN, Q9BST9. As for the experimental part:
as §1

For test [40], the target named is SDC1, P18827. As for the experimental part:
as §1

In test [41] the target is SDC2, P34741. How it is done:
as §1

Test [42] concerns the target SDF4, Q9BRK5. How it is done:
as §1

Test [43] concerns the target TRAF7, Q6Q0C0. How it is done:
as §1

Test [44] deals with ZNF146, Q15072. How it is done: as §1
For test [45], the target named is COA7, Q96BR5. How it is done: as §1
Test [46] concerns the target STT3B, Q8TCJ2. As for the experimental part:
as §1

Test [47] concerns the target TTLL11, Q8NHH1. How it is done: as §1
For test [48], the target named is CLIC4, Q9Y696. How it is done:
as §1

Test [49] deals with CBX8, Q9HC52. As for the experimental part: as §1
Test [50] has as its target MUC5AC, P98088. How it is done: as §1
For test [51], the target named is WDR33, Q9C0J8. How it is done:
as §1

Test [52] has as its target DECR2, Q9NUI1. How it is done:
as §1

Test [53] concerns the target KLF16, Q9BXK1. As for the experimental part: as §1
Test [54] deals with RAP2B, P61225. How it is done: as §1
In test [55] the target is SCD, O00767. How it is done: as §1
Test [56] has as its target SF3B4, Q15427. How it is done: as §1
For test [57], the target named is TTLL12, Q14166. As for the experimental part:
as §1

Test [58] deals with DDX28, Q9NUL7. How it is done: as §1
In test [59] the target is FADS1, O60427. As for the experimental part: as §1
The target of test [60] is NCK2, O43639. How it is done: as §1
For test [61], the target named is NEPRO, Q6NW34. How it is done:
as §1

Test [62] concerns the target SULT1C2, O00338. How it is done: as §1
For test [63], the target named is TMED1, Q13445. As for the experimental part: as §1
Test [64] deals with ZC3HAV1, Q7Z2W4. As for the experimental part:
as §1

In the case of MDPEPR [RFC1], the figures for the “PRISMA enrichment of interactor (log2)” value in [1] and in test [2] were 5.1 and 4.48, respectively.

For the molecule MKATVAVNEL [FAM110B], the “PRISMA enrichment of interactor (log2)” value was 4.01 in test [3]; 6.61 in [4]; 4.16 in test [5]; 4.58 in test [6]; 5.29 in [7].

Take MERCGAYACSV [AFF4]: the “PRISMA enrichment of interactor (log2)” value in test [8] amounted to 6.61; in test [9], 5.24; in test [10] it was 7.33.

On to MRFGLCQGT [KDM5A], for which the “PRISMA enrichment of interactor (log2)” value in test [11] was 5.72.

With MAAMMAFLRTPLD [RPL17], the “PRISMA enrichment of interactor (log2)” value was determined as 4.92 in test [12] and 4.95 in test [13].

Consider MTQESFA [MID1], for which, in test [1], the “PRISMA enrichment of interactor (log2)” value was determined as 5.2.

As to MLLWL [MTMR3], the “PRISMA enrichment of interactor (log2)” value stood at 5.59 in test [14]; 7.69 in test [15]; 7.52 in test [16]; 6.83 in test [17]; 5.21 in [18]; 5.44 in test [19]. Further, the “PRISMA enrichment of interactor (log2)” value in test [20] came to 4.66; in test [21] it was 5.42; in test [22], 5.54.

On to MCPKAPQAGT [KLF9], for which the “PRISMA enrichment of interactor (log2)” value was determined as 4.41 in test [23], 6.14 in test [24], 6.26 in [25] and 4.67 in test [26].

Regarding MCLTGRA [EDEM3], the “PRISMA enrichment of interactor (log2)” value came out at 5.46 in test [27]; 6.48 in [28]; 6.21 in test [29]; 5.3 in [30]; 8.02 in [31]; 4.74 in test [32].

On to MKRVPMNLPPAE [CIPC], for which the “PRISMA enrichment of interactor (log2)” value in [33] was 4.11; in test [34], 6.15; in test [35], 5.92; in test [36], 5.07; in test [37], 5.18; in test [25] it was 6.29. Moreover, the “PRISMA enrichment of interactor (log2)” value was determined as 4.61 in [38]; 3.93 in test [39]; 4.11 in [40]; 5.5 in test [41]; 5.55 in [42]; 6.55 in test [43]. In test [44], the “PRISMA enrichment of interactor (log2)” value is 4.

For MDGYSLFPRA [MYPN], the “PRISMA enrichment of interactor (log2)” value in [45] came to 7.35; in test [46], 4.72; in test [47], 7.08.

As for MLLLQGV [FRMD6], the “PRISMA enrichment of interactor (log2)” value in [48] was determined as 6.47.

For MRDERSA [DCAF11], the “PRISMA enrichment of interactor (log2)” value worked out at 6.85 in test [49], 4.23 in test [50] and 5.13 in test [51].

MCVGICEKKRICEV [TMEM71]: the “PRISMA enrichment of interactor (log2)” value in test [52] was found to be 4.53; in [53] it was 3.93; in [54] it was 4.48; in [55], 5.02; in test [56] it was 6.07; in test [57], 4.41.

Turning to MCRDCPGEELRPR [LRRC32], the “PRISMA enrichment of interactor (log2)” value in test [58] was found to be 6.62; in [59], 5.22; in test [60], 6.59; in [61] it was 5.02; in test [21], 6.79; in test [62] it was 7.48. Further, the entries for the “PRISMA enrichment of interactor (log2)” value in test [63] and in test [64] were 5.77 and 7.09, respectively.
